Experimental data reported in the supplement of paper PMC10849652.
This is one part of the list.

The chains behind the UniProt entries cited, without tags or fusion partners. Where a name states a change or a piece, a line headed by the entry shows the natural chain unless it says otherwise.
UniProt Q6GYQ0: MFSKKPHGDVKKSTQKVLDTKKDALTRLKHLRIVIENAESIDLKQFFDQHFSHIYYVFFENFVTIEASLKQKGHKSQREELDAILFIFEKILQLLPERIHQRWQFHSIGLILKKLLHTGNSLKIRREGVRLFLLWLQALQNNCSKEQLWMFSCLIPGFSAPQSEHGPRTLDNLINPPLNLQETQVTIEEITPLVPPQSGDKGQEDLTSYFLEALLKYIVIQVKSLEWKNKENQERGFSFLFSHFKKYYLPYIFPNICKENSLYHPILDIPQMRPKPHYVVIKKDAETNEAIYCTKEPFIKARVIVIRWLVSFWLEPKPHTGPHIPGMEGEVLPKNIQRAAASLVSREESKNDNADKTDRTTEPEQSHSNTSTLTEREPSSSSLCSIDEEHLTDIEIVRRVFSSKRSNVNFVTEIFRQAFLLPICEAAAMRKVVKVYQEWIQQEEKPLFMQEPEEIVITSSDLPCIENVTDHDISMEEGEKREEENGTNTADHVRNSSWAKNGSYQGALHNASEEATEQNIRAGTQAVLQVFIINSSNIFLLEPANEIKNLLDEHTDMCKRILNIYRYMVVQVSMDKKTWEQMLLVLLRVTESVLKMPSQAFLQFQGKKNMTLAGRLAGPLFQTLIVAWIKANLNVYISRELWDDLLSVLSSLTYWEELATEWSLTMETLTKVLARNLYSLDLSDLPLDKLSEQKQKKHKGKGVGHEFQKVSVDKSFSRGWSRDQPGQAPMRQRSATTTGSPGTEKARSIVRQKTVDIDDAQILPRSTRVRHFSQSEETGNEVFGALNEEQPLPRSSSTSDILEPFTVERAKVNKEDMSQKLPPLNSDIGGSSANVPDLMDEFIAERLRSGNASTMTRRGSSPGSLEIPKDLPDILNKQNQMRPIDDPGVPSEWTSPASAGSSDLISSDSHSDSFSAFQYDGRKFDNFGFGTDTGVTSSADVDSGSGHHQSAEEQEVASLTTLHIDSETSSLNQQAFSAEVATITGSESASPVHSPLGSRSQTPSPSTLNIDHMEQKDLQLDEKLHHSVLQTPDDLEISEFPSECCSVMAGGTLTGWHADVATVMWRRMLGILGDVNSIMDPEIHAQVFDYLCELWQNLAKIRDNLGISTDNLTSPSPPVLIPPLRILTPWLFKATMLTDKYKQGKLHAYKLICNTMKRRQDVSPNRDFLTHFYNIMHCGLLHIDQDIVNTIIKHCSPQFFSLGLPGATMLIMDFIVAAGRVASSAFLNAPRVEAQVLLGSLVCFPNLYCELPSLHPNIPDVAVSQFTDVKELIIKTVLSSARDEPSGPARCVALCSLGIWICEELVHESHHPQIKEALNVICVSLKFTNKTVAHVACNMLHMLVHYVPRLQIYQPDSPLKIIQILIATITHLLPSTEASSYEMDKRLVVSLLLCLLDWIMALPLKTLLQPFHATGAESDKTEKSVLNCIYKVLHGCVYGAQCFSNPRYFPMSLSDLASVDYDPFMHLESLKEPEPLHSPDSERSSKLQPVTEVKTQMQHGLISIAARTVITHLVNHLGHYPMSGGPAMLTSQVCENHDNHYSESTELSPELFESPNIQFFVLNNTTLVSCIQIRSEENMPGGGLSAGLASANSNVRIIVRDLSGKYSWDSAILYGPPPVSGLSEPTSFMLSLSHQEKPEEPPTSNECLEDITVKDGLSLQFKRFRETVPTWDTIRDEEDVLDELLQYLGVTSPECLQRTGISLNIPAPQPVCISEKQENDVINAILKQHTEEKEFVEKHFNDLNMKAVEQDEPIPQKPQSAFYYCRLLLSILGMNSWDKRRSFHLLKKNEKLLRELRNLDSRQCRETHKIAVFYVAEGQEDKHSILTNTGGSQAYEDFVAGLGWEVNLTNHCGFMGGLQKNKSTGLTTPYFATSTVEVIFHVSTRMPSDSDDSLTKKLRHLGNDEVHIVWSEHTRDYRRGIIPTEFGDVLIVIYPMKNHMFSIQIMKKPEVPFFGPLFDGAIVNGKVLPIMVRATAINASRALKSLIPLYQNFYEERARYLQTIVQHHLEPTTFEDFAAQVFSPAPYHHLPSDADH
UniProt Q3YEC7: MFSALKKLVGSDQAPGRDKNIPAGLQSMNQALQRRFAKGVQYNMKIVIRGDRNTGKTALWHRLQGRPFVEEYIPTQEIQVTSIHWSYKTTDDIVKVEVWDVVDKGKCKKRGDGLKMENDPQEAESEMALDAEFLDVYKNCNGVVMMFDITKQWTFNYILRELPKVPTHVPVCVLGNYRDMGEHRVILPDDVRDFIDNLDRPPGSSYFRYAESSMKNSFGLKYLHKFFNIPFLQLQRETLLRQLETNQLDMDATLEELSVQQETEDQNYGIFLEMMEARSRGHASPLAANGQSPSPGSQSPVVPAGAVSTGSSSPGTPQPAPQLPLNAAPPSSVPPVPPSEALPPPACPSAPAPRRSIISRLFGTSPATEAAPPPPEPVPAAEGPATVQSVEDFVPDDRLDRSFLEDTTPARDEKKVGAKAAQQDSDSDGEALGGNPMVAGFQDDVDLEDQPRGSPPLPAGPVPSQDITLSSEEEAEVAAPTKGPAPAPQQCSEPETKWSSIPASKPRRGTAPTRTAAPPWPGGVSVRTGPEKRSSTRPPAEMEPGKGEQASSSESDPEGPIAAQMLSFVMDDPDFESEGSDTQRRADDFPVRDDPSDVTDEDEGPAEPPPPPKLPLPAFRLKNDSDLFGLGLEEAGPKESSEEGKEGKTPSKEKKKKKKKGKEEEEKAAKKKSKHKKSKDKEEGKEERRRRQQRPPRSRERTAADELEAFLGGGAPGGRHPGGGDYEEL
UniProt Q8WWW0: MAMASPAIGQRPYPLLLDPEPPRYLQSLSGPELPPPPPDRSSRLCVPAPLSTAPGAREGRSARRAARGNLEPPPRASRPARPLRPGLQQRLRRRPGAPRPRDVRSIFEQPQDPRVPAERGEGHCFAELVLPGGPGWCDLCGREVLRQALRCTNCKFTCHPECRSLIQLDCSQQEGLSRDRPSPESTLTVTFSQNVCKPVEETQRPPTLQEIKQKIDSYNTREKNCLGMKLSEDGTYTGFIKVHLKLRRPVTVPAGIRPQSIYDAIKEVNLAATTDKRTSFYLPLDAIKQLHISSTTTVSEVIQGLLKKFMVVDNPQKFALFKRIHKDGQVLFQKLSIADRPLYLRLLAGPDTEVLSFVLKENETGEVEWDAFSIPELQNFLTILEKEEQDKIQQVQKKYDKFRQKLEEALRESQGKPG
UniProt P53611: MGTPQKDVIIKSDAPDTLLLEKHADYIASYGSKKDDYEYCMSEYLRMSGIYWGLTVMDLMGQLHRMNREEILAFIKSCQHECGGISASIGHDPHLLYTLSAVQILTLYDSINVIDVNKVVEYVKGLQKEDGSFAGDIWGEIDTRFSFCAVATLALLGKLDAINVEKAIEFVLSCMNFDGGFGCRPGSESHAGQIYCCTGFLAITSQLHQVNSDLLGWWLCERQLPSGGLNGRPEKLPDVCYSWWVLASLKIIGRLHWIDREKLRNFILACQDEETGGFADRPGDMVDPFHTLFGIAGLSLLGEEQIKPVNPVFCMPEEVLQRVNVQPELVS
UniProt P11233: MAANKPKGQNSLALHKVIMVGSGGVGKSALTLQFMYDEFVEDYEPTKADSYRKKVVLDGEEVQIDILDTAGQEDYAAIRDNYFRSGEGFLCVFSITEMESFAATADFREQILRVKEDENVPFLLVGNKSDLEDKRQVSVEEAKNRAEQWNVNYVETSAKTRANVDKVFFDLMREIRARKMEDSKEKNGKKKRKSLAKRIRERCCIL
UniProt O14966: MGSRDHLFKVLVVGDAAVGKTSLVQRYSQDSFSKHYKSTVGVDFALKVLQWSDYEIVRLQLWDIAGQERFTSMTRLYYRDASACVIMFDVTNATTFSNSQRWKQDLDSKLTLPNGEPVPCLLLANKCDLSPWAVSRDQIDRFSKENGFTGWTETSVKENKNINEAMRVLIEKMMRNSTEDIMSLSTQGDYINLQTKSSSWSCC
UniProt P06400: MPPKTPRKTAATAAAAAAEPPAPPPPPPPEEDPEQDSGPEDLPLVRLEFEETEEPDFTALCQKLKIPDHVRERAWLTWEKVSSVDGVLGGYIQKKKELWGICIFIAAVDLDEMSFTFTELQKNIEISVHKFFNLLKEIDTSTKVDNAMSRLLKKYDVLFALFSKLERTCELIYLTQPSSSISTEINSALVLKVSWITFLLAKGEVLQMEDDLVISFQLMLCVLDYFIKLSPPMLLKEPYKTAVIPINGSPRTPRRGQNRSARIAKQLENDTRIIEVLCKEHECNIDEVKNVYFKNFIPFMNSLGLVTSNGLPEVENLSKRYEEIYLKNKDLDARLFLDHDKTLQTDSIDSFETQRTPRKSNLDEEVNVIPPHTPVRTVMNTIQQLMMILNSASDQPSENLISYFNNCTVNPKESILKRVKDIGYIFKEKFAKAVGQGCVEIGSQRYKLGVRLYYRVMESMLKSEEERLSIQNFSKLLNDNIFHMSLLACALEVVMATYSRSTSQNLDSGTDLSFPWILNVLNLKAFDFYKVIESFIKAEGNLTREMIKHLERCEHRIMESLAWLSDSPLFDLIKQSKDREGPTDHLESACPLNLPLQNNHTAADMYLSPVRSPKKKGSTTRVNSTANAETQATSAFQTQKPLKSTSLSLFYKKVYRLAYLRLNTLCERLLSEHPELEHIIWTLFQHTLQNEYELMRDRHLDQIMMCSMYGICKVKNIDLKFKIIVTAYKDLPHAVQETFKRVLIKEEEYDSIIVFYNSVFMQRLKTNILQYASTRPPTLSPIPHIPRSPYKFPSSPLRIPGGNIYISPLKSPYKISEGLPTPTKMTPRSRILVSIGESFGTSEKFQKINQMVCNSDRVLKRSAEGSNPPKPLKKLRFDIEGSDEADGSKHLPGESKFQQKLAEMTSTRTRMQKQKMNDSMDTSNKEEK
UniProt Q9NRW1: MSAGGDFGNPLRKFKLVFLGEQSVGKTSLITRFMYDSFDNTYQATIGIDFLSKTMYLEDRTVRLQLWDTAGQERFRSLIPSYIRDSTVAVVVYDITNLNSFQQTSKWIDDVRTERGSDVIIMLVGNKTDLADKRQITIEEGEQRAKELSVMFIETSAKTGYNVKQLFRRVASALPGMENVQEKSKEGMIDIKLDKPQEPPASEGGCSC
UniProt Q6WKZ4: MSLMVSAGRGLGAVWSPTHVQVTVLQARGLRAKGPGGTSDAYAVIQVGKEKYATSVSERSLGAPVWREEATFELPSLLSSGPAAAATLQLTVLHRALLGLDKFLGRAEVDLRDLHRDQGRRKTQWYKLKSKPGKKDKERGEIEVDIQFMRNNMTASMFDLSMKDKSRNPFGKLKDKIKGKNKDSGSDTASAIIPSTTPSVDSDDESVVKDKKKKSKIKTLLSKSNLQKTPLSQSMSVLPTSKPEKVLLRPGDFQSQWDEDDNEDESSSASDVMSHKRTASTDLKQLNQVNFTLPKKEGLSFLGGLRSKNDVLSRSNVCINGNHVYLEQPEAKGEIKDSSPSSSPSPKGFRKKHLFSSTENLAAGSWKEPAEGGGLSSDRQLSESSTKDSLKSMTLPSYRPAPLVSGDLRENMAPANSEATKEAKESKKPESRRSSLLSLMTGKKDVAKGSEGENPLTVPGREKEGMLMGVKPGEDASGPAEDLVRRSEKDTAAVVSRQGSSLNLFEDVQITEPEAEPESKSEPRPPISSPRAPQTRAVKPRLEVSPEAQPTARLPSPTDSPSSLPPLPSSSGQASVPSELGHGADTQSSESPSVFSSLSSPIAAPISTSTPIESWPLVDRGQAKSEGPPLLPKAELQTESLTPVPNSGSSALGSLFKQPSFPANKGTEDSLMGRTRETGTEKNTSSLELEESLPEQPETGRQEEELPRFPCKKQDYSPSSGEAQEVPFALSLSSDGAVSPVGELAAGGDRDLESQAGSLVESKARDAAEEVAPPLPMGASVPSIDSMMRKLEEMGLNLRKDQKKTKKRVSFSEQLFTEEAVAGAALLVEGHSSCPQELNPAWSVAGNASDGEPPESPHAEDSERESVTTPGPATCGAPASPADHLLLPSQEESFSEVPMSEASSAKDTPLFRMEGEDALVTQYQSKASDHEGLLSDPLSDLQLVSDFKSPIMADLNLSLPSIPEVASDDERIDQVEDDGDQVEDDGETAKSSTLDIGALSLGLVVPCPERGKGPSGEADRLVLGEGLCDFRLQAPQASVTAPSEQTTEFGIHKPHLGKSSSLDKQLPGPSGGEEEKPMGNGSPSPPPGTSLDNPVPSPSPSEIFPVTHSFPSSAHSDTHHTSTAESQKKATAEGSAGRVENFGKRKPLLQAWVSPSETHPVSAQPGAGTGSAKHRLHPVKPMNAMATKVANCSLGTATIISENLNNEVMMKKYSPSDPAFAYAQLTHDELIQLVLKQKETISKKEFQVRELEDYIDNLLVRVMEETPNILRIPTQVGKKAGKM
UniProt P11234: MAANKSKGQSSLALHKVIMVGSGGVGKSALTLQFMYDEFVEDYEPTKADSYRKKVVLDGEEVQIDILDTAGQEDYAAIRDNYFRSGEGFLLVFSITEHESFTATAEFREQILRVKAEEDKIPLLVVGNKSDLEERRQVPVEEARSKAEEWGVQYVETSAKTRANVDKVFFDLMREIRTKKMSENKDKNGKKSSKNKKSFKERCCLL

Compound: C1=CC(=CC=C1C2=NC3=C(N2)C=C(C=C3)C(=O)N)OC4=CC=C(C=C4)Cl
Experiment: log2 fold change, soluble protein after heating vs DMSO (PISA); higher = thermal stabilisation; K562 cells, 10 uM, 30 min; active = over 0.2 and 3.5 SD of the protein, either way, in both replicates (recomputed)
How it was run: (§1)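 Aliquots of K562 cells (2×10^6 cells/mL) treated with 10 μM compound for 30 min were heated for 3 min over 48°C-58°C. After pooling and extraction in PBS with 0.5% NP-40 at 4°C, soluble protein from a 21,000xg, 90 min spin was quantified by TMTpro 16plex LC-MS/MS with channel sums equalised. Thermal stability is expressed against control samples, from duplicates, as a log2 fold change.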

log2 fold change, inactive:
RALGAPA1 isoform 6 (UniProt Q6GYQ0) -0.039
RABL6 (UniProt Q3YEC7) -0.014
RASSF5 (UniProt Q8WWW0) -0.033
RAVER1 (UniProt E9PAU2) 0.009
RABGGTB (UniProt P53611) 0.072
RALA (UniProt P11233) -0.05
RAB29 (UniProt O14966) 0.045
RB1 (UniProt P06400) 0.016
RAB6B (UniProt Q9NRW1) -0.008

Compound: C1=CC2=C(C=CC(=C2)/C=C\3/C(=O)NC(=NCC4=CC=CS4)S3)N=C1
Experiment: as above
How it was run: as §1

log2 fold change, inactive:
RABGEF1 isoform 3 (UniProt Q9UJ41) 0.012
RAP2C (UniProt Q9Y3L5) -0.097
RBBP7 (UniProt Q16576) -0.018
RBM28 (UniProt Q9NW13) -0.098
RAB10 (UniProt P61026) 0.001
RAB6D (UniProt Q53S08) 0.026
RAB3IL1 (UniProt Q8TBN0) 0.019
RAB11FIP1 (UniProt Q6WKZ4) 0.02
RAB30 (UniProt Q15771) -0.033
RAB8B (UniProt Q92930) -0.02
RAD1 (UniProt O60671) 0.08
RALB isoform 2 (UniProt P11234) 0.01
RARS (UniProt P54136) 0.019
RAB4A (UniProt P20338) -0.001
RBM22 (UniProt Q9NW64) -0.117
RBM33 (UniProt Q96EV2) 0
RABIF (UniProt P47224) -0.076
RANGAP1 (UniProt P46060) 0.024
RAP1GDS1 isoform 5 (UniProt P52306) 0.027
RAP2B (UniProt P61225) 0.042
RAB3GAP1 (UniProt Q15042) 0.035
RAC2 (UniProt P15153) -0.003
RAB5C isoform 2 (UniProt P51148) -0.083
RALGAPA1 isoform 6 (UniProt Q6GYQ0) -0.031
RABL6 (UniProt Q3YEC7) 0.006
RASSF5 (UniProt Q8WWW0) -0.001
RAVER1 (UniProt E9PAU2) 0.002
RABGGTB (UniProt P53611) 0.006
RALA (UniProt P11233) 0.005
RAB29 (UniProt O14966) 0.177
RB1 (UniProt P06400) 0.124
RAB6B (UniProt Q9NRW1) -0.079

Compound: C1=CC2=NC=CN=C2C=C1/C=C/3\C(=O)NC(=O)S3
Experiment: as above
How it was run: as §1

log2 fold change, inactive:
RABGEF1 isoform 3 (UniProt Q9UJ41) 0.023
RAP2C (UniProt Q9Y3L5) 0.026
RBBP7 (UniProt Q16576) -0.029
RBM28 (UniProt Q9NW13) 0.248
RAB10 (UniProt P61026) -0.002
RAB6D (UniProt Q53S08) 0.037
RAB3IL1 (UniProt Q8TBN0) 0.019
RAB11FIP1 (UniProt Q6WKZ4) -0.004
RAB30 (UniProt Q15771) 0.035
RAB8B (UniProt Q92930) 0.145
RAD1 (UniProt O60671) 0.031
RALB isoform 2 (UniProt P11234) 0.021
RARS (UniProt P54136) 0
RAB4A (UniProt P20338) 0.011
RBM22 (UniProt Q9NW64) 0.038
RBM33 (UniProt Q96EV2) 0.01
RABIF (UniProt P47224) 0.007
RANGAP1 (UniProt P46060) 0.05
RAP1GDS1 isoform 5 (UniProt P52306) 0.106
RAP2B (UniProt P61225) 0.018
RAB3GAP1 (UniProt Q15042) 0
RAC2 (UniProt P15153) 0.031
RAB5C isoform 2 (UniProt P51148) 0.014
RALGAPA1 isoform 6 (UniProt Q6GYQ0) 0.084
RABL6 (UniProt Q3YEC7) -0.064
RASSF5 (UniProt Q8WWW0) 0.005
RAVER1 (UniProt E9PAU2) -0.06
RABGGTB (UniProt P53611) 0.041
RALA (UniProt P11233) 0.056
RAB29 (UniProt O14966) 0.053
RB1 (UniProt P06400) 0.04
RAB6B (UniProt Q9NRW1) 0.001
